Publication PMC11293026 (Chemical Communications (Cambridge, England), 2024)

Experiment: general procedure: Fmoc solid-phase peptide synthesis; TentaGel S RAM resin (TentaGel Rink amide); HOBt and HBTU
Settings: whole synthesis

Substance	isolated yield [%]
Ac-WHASYNWRWLPP-NH2	7
Ac-WHFSYNWRWLPA-NH2	8
Ac-WHFAYNWRWLPP-NH2	7
Ac-AHFSYNWRWLPP-NH2	4
Ac-WAFSYNWRWLPP-NH2	7
Ac-WHFSYNWRWLPP-NH2	9
Ac-WHFSANWRWLPP-NH2	8
